At least one compound was matched to its structure with a doubt left.
Key:
[1] = Oxidation and ROS-dependent hydrolysis of compound 3, monitored by reverse-phase HPLC; type: physicochemical
Source text: The oxidative and ROS-activation of the instantly disclosed compounds was investigated. Water, one of the simplest nucleophile substrates, was examined under different oxidative conditions (FIG. 5). A model ROS-activated compound, compound 3, was used to explore the chemical reactivity of these agents (FIG. 5A).
Hydrolysis of compound 3 as a function of time was quantified by separation of the reaction products by reverse-phase HPLC (FIG. 5B). […] To obtain quantifiable data, time points were taken daily over one week.
Addition of the one-electron oxidant, […], led to quantitative hydrolysis of compound 3 with a half-life of 0.4±0.2 hours (FIG. 5B). The oxidation potential of Ir(IV) is 0.7 volts vs. Ag/AgCl making it an appropriate choice for oxidation of hydroquinone derivatives. In additional to oxidation, cells produce reactive oxygen species in the forms of hydroxyl radical and singlet oxygen. Copper and hydrogen peroxide can be used to produce hydroxyl radical. […] The extent of hydrolysis was dependent on the hydrogen peroxide concentration and was slow due to lack of ascorbate (data not shown). Oxidases like horseradish peroxidase reduce molecular oxygen to either hydrogen peroxide or water and at the same time oxidize a substrate with an appropriate potential. […]

[2] = test system: renal and CNS cancer cell lines; assay: Sulforhodamine B viability assay, renal and CNS cancer cell lines; type: cell-based; conditions: panels of renal and CNS cancer cell lines, errors less than 25%
392-nucleotide dsDNA = assay: Primer extension assay on 392-nucleotide dsDNA (DNA modification); type: biochemical

CCN(CCOc1ccc(O)cc1)c1ccccc1 [Compound 3, 4-(2-(ethyl(phenyl)amino)ethoxy)phenol]
fraction of compound hydrolyzed ([1]; horseradish peroxidase, after one minute): ~53±13% | change of hydrolysis half-life upon addition of oxidative equivalents ([1]; oxidized versus phosphate buffer alone): > 1700 fold

Oc1ccc(OCCN(CCOc2ccc(O)cc2)c2ccccc2)cc1 [Compound 25, 4,4′-(2,2′-(phenylazanediyl)bis(ethane-2,1-diyl)bis(oxy))diphenol]
IC50 [2]: micromolar range | decrease in full-length product (392-nucleotide dsDNA; compound 25 with oxidative activation, from 3.2%): 69±0.6% | full-length extension product yield (392-nucleotide dsDNA; dsDNA treated with agent, compound 25 followed by oxidative activation (Na2IrCl6)): 1.0±0.2% | full-length extension product yield (392-nucleotide dsDNA; pre-quenched control: DNA incubated with already oxidized compound): 3.2±0.1%

Reference: patent publication US9394233B2, “ROS-activated compounds as selective anti-cancer therapeutics” (University of Cincinnati, priority 2012, dated 2016)
